Measurements taken from the supplement of paper PMC10403144.
The list shows a part of the results.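 How the source made its calls: active = mitochondrial OCR inhibition above 30% at 1 uM; inactive = 30% or less.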 Many values rest on one well or one pass, so single values are uncertain.

System: Toxoplasma gondii RH tachyzoites
Assay: inhibition of mitochondrial O2 consumption rate (% inhibition (relative to pre-injection OCR and atovaquone/antimycin A control)); higher = stronger ETC inhibition
Conditions: 1 µM; injection port (sequential injection order): A

SMILES | inhibition of mitochondrial O2 consumption rate
CC1COC(Cn2cncn2)(c2ccc(Oc3ccc(Cl)cc3)cc2Cl)O1 (centres undefined) | inactive: -3.55
Cc1cccc(C(=O)Nc2ccnc(N(C)C3CCN(CC(C)C)CC3)c2)c1 | inactive: -10.4
Cc1nn(Cc2ccccc2)c(Cl)c1C(=O)NC1CCCCCC1 | inactive: -0.578
Nc1c2c(nc3sc4c(c13)CCCC4)CCCC2 | inactive: -6.2
CCc1nn(C)c(C(=O)NCc2ccc(Oc3ccc(C)cc3)cc2)c1Cl | inactive: -4.92
CC(C)(C)C(O)C(Oc1ccc(-c2ccccc2)cc1)n1cncn1 (centres undefined) | inactive: -4.6

A few values from the results shown:
inhibition of mitochondrial O2 consumption rate with Nc1c2c(nc3sc4c(c13)CCCC4)CCCC2 is entered as inactive: -6.2
inhibition of mitochondrial O2 consumption rate with Cc1nn(Cc2ccccc2)c(Cl)c1C(=O)NC1CCCCCC1 is entered as inactive: -0.578

Same assay, conditions: 1 µM; injection port (sequential injection order): B

SMILES | inhibition of mitochondrial O2 consumption rate
Cc1cc(C2=NOC(c3cc(Cl)c(F)c(Cl)c3)(C(F)(F)F)C2)ccc1C(=O)NCc1ccc2c(c1)C(C)(C)OB2O (centres undefined) | inactive: 3.37
O=C1O[C@@H](CO)CN1c1cc(F)c(C2=CCN(Cc3ccccc3)CC2)c(F)c1 | inactive: -9.8
CO/N=C(\C(=O)OC)c1ccccc1CO/N=C(\C)c1cccc(C(F)(F)F)c1 | active: 68.3
CC1(C)OB(O)c2ccc(C3=NOC(c4cc(Cl)c(F)c(Cl)c4)(C(F)(F)F)C3)cc21 (centres undefined) | inactive: -7.29
CO/C=C(/C(=O)OC)c1ccccc1Oc1cc(Oc2ccccc2C#N)ncn1 | active: 31.9

Same assay, conditions: 1 µM; injection port (sequential injection order): C

SMILES | inhibition of mitochondrial O2 consumption rate
Cc1nn(C)c(C)c1NS(=O)(=O)c1c(Cl)cc(-c2ccnc(N3CCNCC3)c2)cc1Cl | inactive: -13.2
O=C1O[C@@H](COc2ccon2)CN1c1cc(F)c(C2=CCN(Cc3ccccc3)CC2)c(F)c1 | inactive: -10.6
CO[C@@H]1CN(c2ccc(C#CC3(O)CN4CCC3CC4)c(Cc3ccccc3)n2)C[C@H]1O (some centres undefined) | inactive: -42.2
